This test deals with CD8F1 mice, subcutaneous mammary adenocarcinoma, T/C%. As to the kind of experiment: NCI In Vivo Anticancer Drug Screen. Data for tumor model Mammary Adenocarcinoma CD8F1 (subcutaneous) in CD8F1. Conditions: higher T/C = larger tumour. Summed up:
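Tumor-bearing mice, transplantable model; readout survival or tumor size; value = treated (T) / vehicle control (C).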

Where [1] appears, read: T/C endpoint: median tumor weight change, dose: 1000.0 mg/kg/injection, schedule: Q01DX001 (ip), vehicle: saline with Tween-80.

The list shows only some results of the screen, not a fair sample: it is rich in T/C values a quarter to a half above the control, in often repeated tests (any T/C) and in doses without a T/C. Other doses and runs of a compound stand elsewhere. T/C: endpoint of the treated group in % of that of the vehicle group. Schedule codes are those of the source, read here as Q, the interval in days (D) or hours (H), X, the number of doses. Some doses were run more than once; the values are given in rising order. Some T/C values are negative: the treated tumours shrank. Some T/C values are followed by the survivors on the day toxicity was checked, most often the fifth; without a count, all were alive then. Some doses have a count of surviving animals in place of a T/C: the source holds a T/C of zero for them, seemingly a mark for toxic or unscored doses. Survivors were counted at the toxicity check, usually on the fifth day, unless a day is given; later deaths do not show. Positions of bridges follow the written chain, without caps; N, C: chain ends. Non-standard residues stand in square brackets, D forms with d. Residues, ends and D or L forms follow the SMILES beside them. Chains are numbered I, II in the order given. *: point of attachment. Quinoxaline2carbonyl = O=C(c1cnc2ccccc2n1)*; NMeV = CN[CH](C(=O)O)C(C)C; NMeC = CN[CH](CS)C(=O)O

In the case of `Nc1nc(N)c(N=O)c(Nc2ccc(Br)cc2)n1`, the T/C (T/C endpoint: median tumor weight change, dose: 62.5 mg/kg/injection, schedule: Q01DX001 (ip), vehicle: saline with Tween-80, evaluated on day 26) was 49 % of control; the T/C (T/C endpoint: median tumor weight change, dose: 62.5 mg/kg/injection, schedule: Q01DX001 (ip), vehicle: saline with Tween-80, evaluated on day 30) is 44 and 50 % of control; the T/C (T/C endpoint: median tumor weight change, dose: 62.5 mg/kg/injection, schedule: Q01DX001 (ip), vehicle: saline with Tween-80, evaluated on day 31) is 12 % of control; the T/C (T/C endpoint: median tumor weight change, dose: 62.5 mg/kg/injection, schedule: Q01DX001 (ip), vehicle: saline with Tween-80, evaluated on day 37) is 41 % of control; the T/C (T/C endpoint: median tumor weight change, dose: 125.0 mg/kg/injection, schedule: Q01DX001 (ip), vehicle: saline with Tween-80, evaluated on day 26) is 20 % of control; the T/C (T/C endpoint: median tumor weight change, dose: 125.0 mg/kg/injection, schedule: Q01DX001 (ip), vehicle: saline with Tween-80, evaluated on day 30) is 23 and 31 % of control. Besides, the T/C reads like this: (T/C endpoint: median tumor weight change, dose: 125.0 mg/kg/injection, schedule: Q01DX001 (ip), vehicle: saline with Tween-80, evaluated on day 31) 17 % of control; (T/C endpoint: median tumor weight change, dose: 125.0 mg/kg/injection, schedule: Q01DX001 (ip), vehicle: saline with Tween-80, evaluated on day 37) 45 % of control; (T/C endpoint: median tumor weight change, dose: 250.0 mg/kg/injection, schedule: Q01DX001 (ip), vehicle: saline with Tween-80, evaluated on day 26) 16 % of control; (T/C endpoint: median tumor weight change, dose: 250.0 mg/kg/injection, schedule: Q01DX001 (ip), vehicle: saline with Tween-80, evaluated on day 30) 4 and 29 % of control; (T/C endpoint: median tumor weight change, dose: 250.0 mg/kg/injection, schedule: Q01DX001 (ip), vehicle: saline with Tween-80, evaluated on day 31) 15 % of control; (T/C endpoint: median tumor weight change, dose: 250.0 mg/kg/injection, schedule: Q01DX001 (ip), vehicle: saline with Tween-80, evaluated on day 37) 14 % of control. The T/C runs as follows: (T/C endpoint: median tumor weight change, dose: 500.0 mg/kg/injection, schedule: Q01DX001 (ip), vehicle: saline with Tween-80, evaluated on day 26) 19 % of control; (T/C endpoint: median tumor weight change, dose: 500.0 mg/kg/injection, schedule: Q01DX001 (ip), vehicle: saline with Tween-80, evaluated on day 30) 11 and 22 % of control; (T/C endpoint: median tumor weight change, dose: 500.0 mg/kg/injection, schedule: Q01DX001 (ip), vehicle: saline with Tween-80, evaluated on day 31) -5 % of control; (T/C endpoint: median tumor weight change, dose: 500.0 mg/kg/injection, schedule: Q01DX001 (ip), vehicle: saline with Tween-80, evaluated on day 37) -10 % of control; (T/C endpoint: median tumor weight change, dose: 1000.0 mg/kg/injection, schedule: Q01DX001 (ip), vehicle: saline with Tween-80, evaluated on day 26) 10 % of control. Further, the survivor count under setting [1] is given as 3 of 10 on day 30, 4 of 10 on day 30, 5 of 10 on day 37.

`COc1ccc2ccccc2c1C1NC(=O)c2ccccc2N1` (centres undefined): for the setting “T/C endpoint: median tumor weight change, dose: 2000.0 mg/kg/injection, schedule: Q01DX001 (ip), vehicle: Klucel (hydroxypropylcellulose) (HPC)”, the survivor count is 4 of 10 on day 29.

`CC1NC(=O)C(NC(=O)c2cnc3ccccc3n2)COC(=O)C(C(C)C)N(C)C(=O)C2CSSCC(C(=O)N(C)C(C(C)C)C(=O)OCC(NC(=O)c3cnc4ccccc4n3)C(=O)NC(C)C(=O)N2C)N(C)C1=O` (centres undefined) (I: Quinoxaline2carbonyl-SA[NMeC][NMeV] / II: Quinoxaline2carbonyl-SA[NMeC][NMeV]; ester I:1-II:C, I:C-II:1; disulfide I:3-II:3; configuration not given here): the survivor count (T/C endpoint: median tumor weight change, dose: 800.0 micrograms/kg/injection, schedule: Q01DX001 (ip), vehicle: Klucel (hydroxypropylcellulose) (HPC)) was 0 of 10 on day 28.

With `CNC(=O)OCc1c(COC(=O)NC)c(-c2ccccc2)n(C)c1-c1ccccc1`, the T/C is, setting by setting: (T/C endpoint: median tumor weight change, dose: 62.5 mg/kg/injection, schedule: Q01DX001 (ip), vehicle: distilled water + Tween-80, evaluated on day 24) 5 % of control; (T/C endpoint: median tumor weight change, dose: 62.5 mg/kg/injection, schedule: Q01DX001 (ip), vehicle: distilled water + Tween-80, evaluated on day 27) 15 % of control; (T/C endpoint: median tumor weight change, dose: 62.5 mg/kg/injection, schedule: Q01DX001 (ip), vehicle: distilled water + Tween-80, evaluated on day 28) 46 and 67 % of control; (T/C endpoint: median tumor weight change, dose: 62.5 mg/kg/injection, schedule: Q01DX001 (ip), vehicle: distilled water + Tween-80, evaluated on day 49) 58 % of control; (T/C endpoint: median tumor weight change, dose: 125.0 mg/kg/injection, schedule: Q01DX001 (ip), vehicle: distilled water + Tween-80, evaluated on day 27) -44 % of control [9 of 10 alive on day 27]; (T/C endpoint: median tumor weight change, dose: 125.0 mg/kg/injection, schedule: Q01DX001 (ip), vehicle: distilled water + Tween-80, evaluated on day 28) -38 [8 of 10 alive on day 28] and 10 % of control [7 of 10 alive on day 28]. In addition, the T/C (T/C endpoint: median tumor weight change, dose: 125.0 mg/kg/injection, schedule: Q01DX001 (ip), vehicle: distilled water + Tween-80, evaluated on day 49) was 33 % of control. In addition, the survivor count is reported as 1 of 10 on day 24 (T/C endpoint: median tumor weight change, dose: 125.0 mg/kg/injection, schedule: Q01DX001 (ip), vehicle: distilled water + Tween-80); 0 of 10 on day 24, 0 of 10 on day 28, 1 of 10 on day 27, 2 of 10 on day 28, 2 of 10 on day 49 (T/C endpoint: median tumor weight change, dose: 250.0 mg/kg/injection, schedule: Q01DX001 (ip), vehicle: distilled water + Tween-80); 0 of 10 on day 27, 0 of 10 on day 28, 0 of 10 on day 49, 1 of 10 on day 28 (T/C endpoint: median tumor weight change, dose: 500.0 mg/kg/injection, schedule: Q01DX001 (ip), vehicle: distilled water + Tween-80); 0 of 10 on day 28 (T/C endpoint: median tumor weight change, dose: 1000.0 mg/kg/injection, schedule: Q01DX001 (ip), vehicle: distilled water + Tween-80); 0 of 8 on day 28 (T/C endpoint: median tumor weight change, dose: 2000.0 mg/kg/injection, schedule: Q01DX001 (ip), vehicle: distilled water + Tween-80).

On to `CCCCCC[C@H]([C@H](C)O)n1cnc2c(N)ncnc21`, for which the T/C is 143 % of control [7 of 10 alive on day 30] (T/C endpoint: median tumor weight (est.), dose: 6.25 mg/kg/injection, schedule: Q07DX005 (ip), vehicle: Klucel (hydroxypropylcellulose) (HPC), evaluated on day 30) and 133 % of control (T/C endpoint: median tumor weight (est.), dose: 100.0 mg/kg/injection, schedule: Q07DX005 (ip), vehicle: Klucel (hydroxypropylcellulose) (HPC), evaluated on day 30). The survivor count (T/C endpoint: median tumor weight (est.), dose: 200.0 mg/kg/injection, schedule: Q07DX005 (ip), vehicle: Klucel (hydroxypropylcellulose) (HPC)) is 1 of 10 on day 30 and 5 of 10; the survivor count (T/C endpoint: median tumor weight change, dose: 400.0 mg/kg/injection, schedule: Q01DX001 (ip), vehicle: Klucel (hydroxypropylcellulose) (HPC)) is 1 of 10 on day 28; the survivor count (T/C endpoint: median tumor weight change, dose: 800.0 mg/kg/injection, schedule: Q01DX001 (ip), vehicle: Klucel (hydroxypropylcellulose) (HPC)) is on record as 0 of 10 on day 28.

For the compound `COc1cc2oc(=O)ccc2cc1[C@@H]1OC(=O)C2(C)O[C@@H]12` (some centres undefined), under “T/C endpoint: median tumor weight (est.), dose: 1.88 mg/kg/injection, schedule: Q07DX005 (ip), vehicle: water, evaluated on day 30”, the T/C was 127 % of control [9 of 10 alive].

As for `C1CN2CN3CCN(CN1C3)C2`, for the setting “T/C endpoint: mean tumor weight, dose: 200.0 mg/kg/injection, schedule: Q07DX006 (ip), vehicle: saline”, the survivor count is reported as 2 of 10.

With `C1OCN2CSCC12` (centres undefined), the survivor count is 0 of 10 on day 29 under setting [1] and 0 of 10 on day 29 (T/C endpoint: median tumor weight change, dose: 2000.0 mg/kg/injection, schedule: Q01DX001 (ip), vehicle: saline with Tween-80).

As for `O=C1CC2(C(=O)N1CN1CCCCC1)c1ccccc1-c1ccccc12`, the T/C (T/C endpoint: median tumor weight (est.), dose: 50.0 mg/kg/injection, schedule: Q07DX005 (ip), vehicle: Klucel (hydroxypropylcellulose) (HPC), evaluated on day 30) is 149 % of control.

Take `C=C1C(=O)C2=CC1CCC(=O)C1(C)CCC(OC(C)=O)C(C)(C)C1CC2O` (centres undefined): the survivor count (T/C endpoint: median tumor weight change, dose: 300.0 mg/kg/injection, schedule: Q01DX001 (ip), vehicle: Klucel (hydroxypropylcellulose) (HPC)) was 0 of 10 on day 36 and the survivor count (T/C endpoint: median tumor weight change, dose: 600.0 mg/kg/injection, schedule: Q01DX001 (ip), vehicle: Klucel (hydroxypropylcellulose) (HPC)) was 0 of 10 on day 36.

Consider `[Cl][Hg][Cl]`, for which the survivor count is recorded as 6 of 10 on day 25 (T/C endpoint: median tumor weight change, dose: 6.25 mg/kg/injection, schedule: Q01DX001 (ip), vehicle: saline); 0 of 10 on day 25 (T/C endpoint: median tumor weight change, dose: 12.5 mg/kg/injection, schedule: Q01DX001 (ip), vehicle: saline); 0 of 10 on day 25 (T/C endpoint: median tumor weight change, dose: 25.0 mg/kg/injection, schedule: Q01DX001 (ip), vehicle: saline).

`O=c1c(O)c(-c2ccc(O)c(O)c2)oc2cc(O)cc(O)c12`: the T/C is 140 % of control (T/C endpoint: median tumor weight (est.), dose: 12.5 mg/kg/injection, schedule: Q07DX005 (ip), vehicle: other, evaluated on day 30) and 133 % of control [9 of 10 alive] (T/C endpoint: median tumor weight (est.), dose: 200.0 mg/kg/injection, schedule: Q07DX005 (ip), vehicle: other, evaluated on day 30).

Source of the values: PubChem BioAssay AID220 (DTP/NCI, 2004).
